Source: publication PMC10774338
Positions count from the first letter of the chain named. No constants are given. Whether binding was seen depends on the method and setting. Binding seen in cells or lysates may run through a third protein. Some entries that bind do so weakly or less than the wild type. Where a sequence is shown, tags or fusion partners need not be part of it.

By UniProt entry, the sequences of proteins in these tests, tags left out.
UniProt P62491: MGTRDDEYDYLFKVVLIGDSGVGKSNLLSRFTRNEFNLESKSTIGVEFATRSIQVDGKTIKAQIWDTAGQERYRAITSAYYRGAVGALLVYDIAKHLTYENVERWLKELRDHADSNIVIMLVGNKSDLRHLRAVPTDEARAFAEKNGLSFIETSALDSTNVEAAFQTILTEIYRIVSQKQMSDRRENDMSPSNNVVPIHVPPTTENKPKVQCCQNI

Columns and labels:
Assay in all cases: co-IP; GFP-RAB11A and Myc-WDR44 wild-type or variant coexpressed in 293T for 48 h; Myc-tagged proteins immunoprecipitated from lysate (150 mM NaCl, 20 mM Tris HCl pH 8.0, 10% glycerol, 1% Triton X-100; Protein G Sepharose), blots probed for GFP and Myc; also done after 3 h and 24 h serum starvation (wild-type, G782C, S764F)
[1] = target: T1, Myc-tagged WDR44 L668S (human) (UniProt Q5JSH3)
T1 sequence: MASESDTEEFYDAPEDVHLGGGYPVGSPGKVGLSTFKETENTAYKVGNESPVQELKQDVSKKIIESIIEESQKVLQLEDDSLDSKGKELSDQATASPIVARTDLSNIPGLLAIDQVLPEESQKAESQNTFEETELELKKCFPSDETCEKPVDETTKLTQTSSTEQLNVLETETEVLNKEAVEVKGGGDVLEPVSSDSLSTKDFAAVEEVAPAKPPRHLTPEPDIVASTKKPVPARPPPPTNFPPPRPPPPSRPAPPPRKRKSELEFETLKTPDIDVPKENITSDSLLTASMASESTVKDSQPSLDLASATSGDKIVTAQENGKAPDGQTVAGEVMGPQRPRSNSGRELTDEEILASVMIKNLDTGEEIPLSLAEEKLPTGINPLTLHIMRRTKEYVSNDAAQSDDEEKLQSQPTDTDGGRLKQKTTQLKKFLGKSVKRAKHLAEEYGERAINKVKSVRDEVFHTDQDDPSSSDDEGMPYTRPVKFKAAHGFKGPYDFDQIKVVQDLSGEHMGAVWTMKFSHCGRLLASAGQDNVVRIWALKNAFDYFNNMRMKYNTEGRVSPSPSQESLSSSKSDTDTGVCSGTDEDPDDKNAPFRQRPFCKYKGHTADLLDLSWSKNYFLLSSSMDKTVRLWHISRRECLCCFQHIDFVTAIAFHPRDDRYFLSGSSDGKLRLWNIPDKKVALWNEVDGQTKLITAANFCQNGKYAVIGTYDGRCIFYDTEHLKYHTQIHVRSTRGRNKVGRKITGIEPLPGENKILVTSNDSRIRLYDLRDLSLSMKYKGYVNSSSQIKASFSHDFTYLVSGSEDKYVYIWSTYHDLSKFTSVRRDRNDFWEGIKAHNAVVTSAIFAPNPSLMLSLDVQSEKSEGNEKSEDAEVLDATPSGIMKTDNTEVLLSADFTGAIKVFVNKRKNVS

[2] = target: T2, Myc-tagged WDR44 R733* (human) (UniProt Q5JSH3)
T2 sequence: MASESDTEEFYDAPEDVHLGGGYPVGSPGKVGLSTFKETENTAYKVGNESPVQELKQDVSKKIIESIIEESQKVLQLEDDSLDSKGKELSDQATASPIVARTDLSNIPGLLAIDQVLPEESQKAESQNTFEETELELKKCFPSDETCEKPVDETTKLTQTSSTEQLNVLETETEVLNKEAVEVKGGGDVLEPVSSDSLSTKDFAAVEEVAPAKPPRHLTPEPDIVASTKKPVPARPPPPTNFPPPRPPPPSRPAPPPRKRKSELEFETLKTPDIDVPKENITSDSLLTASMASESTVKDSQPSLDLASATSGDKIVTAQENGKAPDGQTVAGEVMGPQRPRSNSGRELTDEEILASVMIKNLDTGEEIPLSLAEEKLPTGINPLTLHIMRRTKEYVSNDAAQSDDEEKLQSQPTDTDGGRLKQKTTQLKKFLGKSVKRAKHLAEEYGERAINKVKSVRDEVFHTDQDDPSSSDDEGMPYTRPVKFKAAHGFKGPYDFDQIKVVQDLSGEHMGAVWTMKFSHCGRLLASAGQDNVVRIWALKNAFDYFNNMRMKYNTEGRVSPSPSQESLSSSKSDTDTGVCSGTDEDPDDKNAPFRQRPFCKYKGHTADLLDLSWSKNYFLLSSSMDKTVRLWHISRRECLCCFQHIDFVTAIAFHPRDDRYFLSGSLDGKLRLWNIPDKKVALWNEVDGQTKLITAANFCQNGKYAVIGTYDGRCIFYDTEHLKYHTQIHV

[3] = target: T3, Myc-tagged WDR44 S764F (human) (UniProt Q5JSH3)
T3 sequence: T1 sequence with S668L, S764F

Measured: binding

GFP-tagged RAB11A (from UniProt P62491 1-216)
binds: [1] | [2] | [3]
